Laboratory results reported in PubChem BioAssay AID504834 (National Center for Advancing Translational Sciences (NCATS), 2011).
In all, about 320,000 compounds went through this assay and about 22,000 (6.9%) were called active. The inconclusive results got no clear call from the source; some entries with a clear call stand among them for comparison. Calls follow the shape of the dose curve; as a rule, active = well fitted inhibition curve with a large enough effect; inconclusive = small, poorly fitted or top-dose-only effect, or another doubt; inactive = no such curve, though single readings can be large or run the other way. Potencies of inconclusive entries are doubtful fits and often do not repeat. Where a SMILES comes first, the peptide text is derived from it.

Experiment: Primary qHTS for delayed death inhibitors of the malarial parasite plastid, 96 hour incubation
Details: P. falciparum luciferase reporter growth; series mostly up to 28.7 µM
Outline: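 Parasite growth measured via integrated firefly luciferase reporter in P. falciparum. Infected erythrocytes at 2% hematocrit, 0.05% parasitemia final were treated 96 hours at 37 C under 5% CO2, and luminescence was read.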
% is scaled to controls: 0 for no effect and ±100 for the full control effect; potency is read from the fitted curve at half-maximal effect.

Row | SMILES | Potency | activity change, negative = inhibition
1 | CCC(C)N(C(=O)COC(=O)C1C(C(=O)OC)=C(C)NC(C)=C1C(=O)OC)C1CCS(=O)(=O)C1 (stereo unspecified) | inconclusive: 4.65 µM [inhibitor, partial curve, poor fit] | –
2 | O=C(COC(=O)c1ccco1)c1ccc(F)cc1 | inconclusive: 0.928 µM [inhibitor, partial curve, poor fit] | –
3 | O=C(NNS(=O)(=O)c1ccc2ccccc2c1)c1cccs1 | inconclusive: 18.5 µM [inhibitor, single point] | –
4 | CC1CCCN(S(=O)(=O)c2cc(Cl)ccc2Cl)C1 (stereo unspecified) | inconclusive: 3.29 µM [inhibitor, partial curve, poor fit] | –
5 | COc1ccccc1/C=N/NC(=O)Cn1cnc([N+](=O)[O-])n1 | inconclusive: 18.5 µM [inhibitor, single point] | –
6 | C/C(=N\NC(=S)NC1CCCCC1)c1cccc(C(F)(F)F)c1 | inconclusive: 1.47 µM [inhibitor, full curve] | –
7 | O=C(NNC1=Nc2cccc3cccc1c23)c1ccccc1Br | inconclusive: 11.7 µM [inhibitor, partial curve, poor fit] | –
8 | CC1CN(c2ccc(C(=O)c3ccccc3C(=O)O)cc2[N+](=O)[O-])CC(C)O1 (stereo unspecified) | inconclusive: 4.15 µM [inhibitor, full curve, poor fit] | –
9 | Cc1cc(C)c(C#N)c(N2CCN(c3ccc(F)cc3)CC2)n1 | inactive | –
10 | CCOc1cc(-c2nc(C)c(C(C)=O)n2O)ccc1OCC(=O)Nc1ccc(F)cc1 | inconclusive: 18.5 µM [inhibitor, single point] | –
11 | CC(C)(C)NC(=O)c1cccc(NC(=O)CSc2ccc(Cl)cc2)c1 | inconclusive: 18.5 µM [inhibitor, single point] | –
12 | Cc1cccc(N2CCN(C(=O)c3cc4ccccc4oc3=O)CC2)c1C | inconclusive: 18.5 µM [inhibitor, single point] | –
13 | Cc1ccc(S(=O)(=O)N2CCC(c3nnc(SCCN4CCCC4)n3C)CC2)cc1 | inconclusive: 7.38 µM [inhibitor, partial curve] | –
14 | CCc1ccc(OCC(=O)OC(C)C(=O)Nc2ccc(Cl)cn2)cc1 (stereo unspecified) | inactive | –
15 | O=C1NCC(O)=C1C=NC12CC3CC(CC(C3)C1)C2 | inconclusive: 20.8 µM [inhibitor, single point] | –
16 | CC(C)Cc1nc(N2CCN(C(=O)c3ccccc3)CC2)c(C#N)c2c1CCC2 | inconclusive: 5.22 µM [inhibitor, partial curve, poor fit] | –
17 | COc1ccc2c(-c3ccccc3)cc(SCC(=O)NC(N)=O)nc2c1 | inconclusive: 18.5 µM [inhibitor, partial curve, poor fit] | –
18 | C[C@H](NC(=O)c1ccco1)C(=O)NC1CCCCCC1 | inconclusive: 3.29 µM [inhibitor, partial curve, poor fit] | –
19 | Cc1cccc(C(=O)OCCN2CCOCC2)c1 | inactive | –
20 | CCOC(=O)c1nnn2c1nc(Nc1cccc(C(F)(F)F)c1)c1ccccc12 | inconclusive: 10.4 µM [inhibitor, single point] | –
21 | CN(C)C(=O)c1ccc(NC(=O)c2cccnc2)cc1 | inactive | –
22 | CCSc1nnc(NC(=O)C2CCN(S(=O)(=O)c3ccccc3C(F)(F)F)CC2)s1 | inconclusive: 3.7 µM [inhibitor, partial curve] | –
23 | CCN(CC)CCN1C(=O)C(=O)/C(=C(/O)c2ccc(OC(C)C)cc2)C1c1ccncc1 (stereo unspecified) | active: 14.7 µM | –
24 | O=C1OC(NCc2cccnc2)(c2ccc(Cl)cc2)c2ccccc21 (stereo unspecified) | inactive | –

Row | SMILES | Potency | activity change, negative = inhibition
25 | CCOc1ccc2c(c1)sc(N)[n+]2Cc1cc(C)cc2cccnc12 | active: 1.85 µM | –
26 | CC(=O)Nc1ccc(S(=O)(=O)Nc2ccccn2)cc1 | inconclusive: 18.5 µM [inhibitor, single point] | –
27 | O=C(CNC(=O)c1cccs1)NCC(=O)OCc1ccc(Cl)cc1Cl | inconclusive: 2.33 µM [inhibitor, partial curve, poor fit] | –
28 | COc1ccc(/C=C/C(=O)OCc2csc(-c3ccccc3)n2)cc1OC | inconclusive: 0.0657 µM [inhibitor, full curve, poor fit] | –
29 | CC(=O)NC(CC(C)C)C(=O)NC(Cc1ccccc1)C(N)=O (stereo not drawn) (Ac-Leu-Phe-NH2; configuration not given here) | inconclusive: 16.5 µM [inhibitor, single point] | –
30 | CN1CCN(c2cccc3c2C(=O)c2ccccc2C3=O)CC1 | inactive | –
31 | Cc1cc(/C=C(\C#N)c2nnc(N3CCOCC3)n2-c2ccccc2)c(C)n1-c1ccccc1 | inconclusive: 8.28 µM [inhibitor, single point] | –
32 | NC(=O)CN1CCN(c2nc(-c3ccc(F)cc3)cs2)CC1 | inactive | –
33 | COC(=O)c1ccc(NC(=O)CN2CCC(NC(=O)c3ccco3)CC2)cc1 | inactive | –
34 | Cc1ccc(S(=O)(=O)N(C)c2cc(S(N)(=O)=O)c(C)cc2C)cc1 | inconclusive: 0.165 µM [inhibitor, partial curve, poor fit] | –
35 | C=CCN(c1ccccc1)S(=O)(=O)c1cccc(C(=O)Nc2ncccc2O)c1 | inconclusive: 2.94 µM [inhibitor, single point] | –
36 | CC(=O)c1c(O)c2ccccc2n(Cc2ccccc2)c1=O | active: 13.1 µM | –
37 | O=S1(=O)CCOCCN1Cc1ccccc1 | inactive | –
38 | COc1cc(OC)cc(C(=O)N[C@H](C(=O)Nc2nnc(C3CC3)s2)C(C)C)c1 | inactive | –
39 | CC(C)(C)c1ccc(S(=O)(=O)Nc2noc3ccccc23)cc1 | inconclusive: 0.329 µM [inhibitor, partial curve, poor fit] | –
40 | COc1ccc(NC(=O)CCn2nnc(-c3ccc(C)cc3)n2)cc1OC | inconclusive: 16.5 µM [inhibitor, single point] | –
41 | CCOC(=O)c1c(COC(=O)c2ccco2)nc2ccccc2[n+]1[O-] | inactive | –
42 | O=C(NCc1nc(-c2ccc(C(F)(F)F)cc2)no1)Nc1cc(Cl)cc(Cl)c1 | inconclusive: 11.7 µM [inhibitor, single point] | –
43 | CCN1C(=O)C(CC(=O)Nc2c(C)cccc2C)Nc2cc(S(=O)(=O)N(C)C)ccc21 (stereo unspecified) | – | inactive: 45.5% [at 5.75 µM]
44 | Cc1ccccc1NC(=O)CN1C(=S)NC(C)(C)CC1C (stereo unspecified) | inconclusive: 20.8 µM [inhibitor, partial curve, poor fit] | –
45 | CS(=O)(=O)c1nc(-c2cccs2)cc(C(F)(F)F)n1 | active: 13.1 µM | –
46 | N#C/C(=C/c1cn(-c2ccccc2)nc1-c1cccc(S(=O)(=O)N2CCOCC2)c1)C(=O)NCc1ccco1 | inactive | –
47 | Cn1c2ccccc2c2cc(/C=N/NC(=O)c3cc(O)ccc3O)ccc21 | inconclusive: 18.5 µM [inhibitor, single point] | –
48 | COc1ccc(-c2noc(CNC(=O)c3ccoc3C)n2)cc1 | inactive | –

Copied from the listing (four entries):
Row | SMILES | Potency | activity change, negative = inhibition
27 | O=C(CNC(=O)c1cccs1)NCC(=O)OCc1ccc(Cl)cc1Cl | inconclusive: 2.33 µM [inhibitor, partial curve, poor fit] | –
28 | COc1ccc(/C=C/C(=O)OCc2csc(-c3ccccc3)n2)cc1OC | inconclusive: 0.0657 µM [inhibitor, full curve, poor fit] | –
29 | CC(=O)NC(CC(C)C)C(=O)NC(Cc1ccccc1)C(N)=O (stereo not drawn) (Ac-Leu-Phe-NH2; configuration not given here) | inconclusive: 16.5 µM [inhibitor, single point] | –
30 | CN1CCN(c2cccc3c2C(=O)c2ccccc2C3=O)CC1 | inactive | –

(cont.)

Row | SMILES | Potency | activity change, negative = inhibition
49 | CNCc1ccccc1OCc1ccc(F)cc1 | inactive | –
50 | Cn1c(SCC(=O)N2CCCCCC2)nnc1-c1ccco1 | inconclusive: 1.04 µM [inhibitor, partial curve, poor fit] | –
51 | COc1ccc(SC[C@H](Cc2ccccc2)N2CCN(C)CCC2=O)cc1 | active: 10.4 µM | –
52 | NC(=O)Cn1c(=O)n(CCC(=O)NCCSCc2ccccc2)c(=O)c2ccccc21 | inactive | –
53 | Cc1ccc(NS(=O)(=O)c2cccc3nsnc23)cc1C | active: 4.15 µM | –
54 | Cc1ccc([N+](=O)[O-])cc1NC(=O)C(C)Sc1nnc(C)n1CC1CCCO1 (stereo unspecified) | inconclusive: 9.28 µM [inhibitor, partial curve] | –
55 | O=C(CCC(=O)Nc1ccc(F)cc1)N/N=C/c1ccc(O)cc1O | inconclusive: 18.5 µM [inhibitor, single point] | –
56 | Cc1ccc(S(=O)(=O)/N=C2/NC(=O)/C(=C/c3cc([N+](=O)[O-])ccc3O)S2)cc1 | inconclusive: 9.28 µM [inhibitor, partial curve, poor fit] | –
57 | CC1CN(C(=S)NC(=O)c2ccc(Cl)cc2)CC(C)O1 (stereo unspecified) | inactive | –
58 | COc1cccc(NC(=O)CCC(=O)N2CC(C)Oc3ccc(C)cc32)c1 (stereo unspecified) | inconclusive: 18.5 µM [inhibitor, single point] | –
59 | COc1ccc(S(=O)(=O)N2CCN(C(=O)c3cc4c(s3)CCCC4)CC2)cc1 | inconclusive: 13.1 µM [inhibitor, single point] | –
60 | Cc1cccc(N2CCc3c2nc2ccccc2c3N)c1 | active: 10.4 µM | –
61 | O=C1N=C(N2CCCCC2)S/C1=C\c1ccc(Br)cc1 | inconclusive: 18.5 µM [inhibitor, single point] | –
62 | Cc1cc(C(=O)OCC(=O)N2CCN(C(=O)c3ccco3)CC2)c(C)n1-c1ccc(F)cc1 | inactive | –
63 | CCN1CCN(C(=O)c2nn(C)c3c2CS(=O)(=O)c2ccccc2-3)CC1 | inconclusive: 1.04 µM [inhibitor, full curve, poor fit] | –
64 | O=C(NCc1ccccc1)C(c1ccncc1)N(C(=O)c1ccccn1)c1ccccc1 (stereo unspecified) | inactive | –
65 | Cc1onc(-c2ccccc2)c1C(=O)NC(=S)NNC(=O)c1ccncc1 | active: 10.4 µM | –
66 | Cc1cc(NCc2ccco2)n2ncnc2n1 | inconclusive: 10.4 µM [inhibitor, single point] | –
67 | Cn1c(CN2CCCCC2)nc2cc(NS(=O)(=O)c3ccc(F)cc3)ccc21 | inconclusive: 18.5 µM [inhibitor, partial curve, poor fit] | –
68 | O=C(N=C1SC2CS(=O)(=O)CC2N1c1ccc(F)c(Cl)c1)C1CCCO1 (stereo unspecified) | inactive | –
69 | CCn1c(=O)c(-c2ccccc2)c(O)c2ccccc21 | inactive | –
70 | C[N+](C)=C1SCC(C)(/C=N/O)S1 (stereo unspecified) | inactive | –
71 | O=C(NCc1ccco1)c1ccccc1SCC(=O)N1CCCC1 | inactive | –
